# Laboratory results published in publication PMC10425460.
# Results are given in words; binding and its absence hold for the method and conditions named. Binding seen in cells or lysates may run through a third protein. Some results given as binding are weak or reduced against the parent protein; the word gives no strength. Sequences can lack the tags named with a protein.
# T1: cYFP-VAP27-1 (Arabidopsis thaliana) (UniProt Q8VZ95)
# T1 sequence: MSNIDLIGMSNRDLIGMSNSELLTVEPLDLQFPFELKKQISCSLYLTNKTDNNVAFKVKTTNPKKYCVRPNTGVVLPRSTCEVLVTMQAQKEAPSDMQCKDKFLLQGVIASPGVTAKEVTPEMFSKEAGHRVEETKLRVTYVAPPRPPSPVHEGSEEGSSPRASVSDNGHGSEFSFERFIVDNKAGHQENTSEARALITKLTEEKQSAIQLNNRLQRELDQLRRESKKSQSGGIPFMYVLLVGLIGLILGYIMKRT
# B1: nYFP-Exo84c (protein, UniProt Q9SY60 1-769)
# chain: MESSEEDDEYPFIESITPQSKIDSVHQSLTEKGIRKLCCELMDLKDAVENMCGDMRTKYLAFLRISEEAVEMEHELVELRKHISSQGILVQDLMAGVCREMDDWNRLPGDVHDAEVEEDPLPNEVTDPKSEFLEKIDLLLAEHKVDEALEAMDAEERSSPDLKGSVEMSSYKSAFMERKAVLEDQLLRIAKQPSICVAELKHALIGLIRLGKGPSAHQLLLKFYATSLRRRIEAFLPSCLTCPNTFPATLSKLVFSNISVATKESAAMFGDDDNPAYSNKVVQWAEREVEYLVRLVKENASPSETASALRAASICLQDCLNYCKVLEPQGLFLSKLFLVLFRPYVEEVLELNFRRARRVIFDLNETDEGLESPSDFVTILSEFAIASDTMMTDCSIRFMQIVQDILEQLTHLVVLHFGESVLTRILQLYDKYIDFLIKALPGHSDEDGLPELQDNTVLARAETDSEQLALLGAAFTILDELLPRSLVKVWKLQIENGGGEGENSAALNSSAAPELKEWKRHMVQAFDKLRNYFCLQFVLSFIYSREGLTRLDALIYLTETPDDLHLPSLPFQALFSKLQQLAIIAGDVLLGKEKLQKILLARLTETVIIWLSNEQEFWSAFEDESNPLQPSGLQQLILDMNFTVEIARFAGYPFKVVQNHASVVINRAINIFSERGINPQSSLPKTEWFTEAAKSAINRLLMGSEDASEPEEYECEEEEEDDHHIVLPEMDDDSDSEDTSSLSTVDSFESFASASMADLESPSFTDSES
# B2: nYFP-fused Exo84a (BiFC construct) (protein, UniProt F4I4B6 1-754)
# chain: MEARERGSMSSSIGNSAELEGNLTLSDRLKVFKGSTFDPDAYVTSKCQRMNEKETRHLSSYLVELKKASAEEMRKSVYANYAAFIRTSKEISALEGQLLSMRNLLSAQAALVHGLADGVHISSLCADDADDLRDEDLYDMDNKQLSNIENWVVEFFDRLEVLLAEKRVEESMAALEEGRRVAVEAHEKRTLSPTTLLSLNNAIKEKRQELADQLAEAISQPSTRGGELRSAVLSLKKLGDGSRAHTLLLRSYERRLQANIQSLRASNTSYGVAFAAALSQLVFSTIAQAASDSQAVVGEDPAYTSELVTWAVKQAESFALLLKRHTLASSAAAGSLRVTAECVQLCASHCSSLESRGLALSPVLLKHFRPGVEQALTGNLKRIEQSSAALAASDDWSLSYTPTGSRASSTTPTAPHLKLSISAQRFNSMVQEFLEDAGPLDEALQLDGIALDGVLQVFNSYVDLLINALPGSAENEENPVHRIVKVAETESQQTALLVNALLLADELIPRSASRILPQGTSQSTPRRGSSDRQNRPEQREWKKKLQRSVDRLRDSFCRQHALELIFTEEGEVRLSSEIYILMDETTEEPEWFPSPIFQELFAKLTRIAMIVSDMFVGRERFATILLMRLTETVILWISDDQSFWEEMETGDKPLGPLGLQQFYLDMEFVMIFASQGRYLSRNLHQVIKNIIARAVEAVSATGLDPYSTLPEEEWFAEVAQIAIKMLMGKGNFGGHGERDVTSPSVSSAKSYTSN
# B3: nYFP-fused Exo84b (BiFC construct) (protein, UniProt Q9LTB0 1-752)
# chain: MAAKTARSKATPTKENGVRVEEGLSLFKSDKFDADAYVQSKCSINEKDIKQLCSYLLDLKRASAEEMRRSVYANYPAFIRTSKEISDLEGELSSIRNLLSTQATLIHGLADGVNIDDDKVSDESLANGLLNFEDNGLSDLEKWATEFPDHLDALLAERRVDEALAAFDEGEILVSQANEKHTLSSSVLSSLQFAIAERKQKLADQLAKAACQPSTRGGELRSAIAALKRLGDGPRAHTVLLDAHFQRYQYNMQSLRPSSTSYGGAYTAALSQLVFSAISQASSDSLGIFGKEPAYSSELVTWATKQTEAFSLLVKRHALASSAAAGGLRAAAECAQIALGHCSLLEARGLSLCPVLLKHFKPIVEQALEANLKRIEENTAAMAAADDWVLTSPPAGSRHASTAFQNKLTSSAHRFNLMVQDFFEDVGPLLSMQLGSKALEGLFRVFNSYVDVLVRALPGSIEEEDPNFESSCNKIVQMAETEANQLALLANASLLADELLPRAAMKLSLDQTGQRTDDLRRPLDRQNRNPEQREWKRRLLSTVDKLKDAFCRQHALDLIFTEEGDSHLSADMYVNIDENGEDVDFFPSLIFQELFAKLNRMASLAADMFVGRERFAISLLMRLTETVILWLSGDQSFWDDIEEGPRPLGPLGLRQLYLDMKFVICFASQGRYLSRNLHRGTNEIISKALAAFTATGIDPYSELPEDDWFNDICVDAMERLSGKTKGNNGDVHSPTASVSAQSVSSARSHGSY
# Target: T1, cYFP-VAP27-1 (Arabidopsis thaliana)
# Assay: split reporter; BiFC: nYFP fusions of Exo84 isoforms (pCL112-nYFP) and cYFP fusions of VAP27-1/-3 (pCL113-cYFP) transiently co-expressed in N. benthamiana leaf cells; YFP fluorescence by confocal microscopy
row,binding,Binder
1,binds,B1
2,no binding,B2
3,no binding,B3
